Measured values: publication PMC10655684
Results are given in words; binding and its absence hold for the method and conditions named. Binding seen in cells or lysates may run through a third protein. Some results given as binding are weak or reduced against the parent protein; the word gives no strength.

The chains behind the UniProt entries cited, without tags or fusion partners.
UniProt P35222: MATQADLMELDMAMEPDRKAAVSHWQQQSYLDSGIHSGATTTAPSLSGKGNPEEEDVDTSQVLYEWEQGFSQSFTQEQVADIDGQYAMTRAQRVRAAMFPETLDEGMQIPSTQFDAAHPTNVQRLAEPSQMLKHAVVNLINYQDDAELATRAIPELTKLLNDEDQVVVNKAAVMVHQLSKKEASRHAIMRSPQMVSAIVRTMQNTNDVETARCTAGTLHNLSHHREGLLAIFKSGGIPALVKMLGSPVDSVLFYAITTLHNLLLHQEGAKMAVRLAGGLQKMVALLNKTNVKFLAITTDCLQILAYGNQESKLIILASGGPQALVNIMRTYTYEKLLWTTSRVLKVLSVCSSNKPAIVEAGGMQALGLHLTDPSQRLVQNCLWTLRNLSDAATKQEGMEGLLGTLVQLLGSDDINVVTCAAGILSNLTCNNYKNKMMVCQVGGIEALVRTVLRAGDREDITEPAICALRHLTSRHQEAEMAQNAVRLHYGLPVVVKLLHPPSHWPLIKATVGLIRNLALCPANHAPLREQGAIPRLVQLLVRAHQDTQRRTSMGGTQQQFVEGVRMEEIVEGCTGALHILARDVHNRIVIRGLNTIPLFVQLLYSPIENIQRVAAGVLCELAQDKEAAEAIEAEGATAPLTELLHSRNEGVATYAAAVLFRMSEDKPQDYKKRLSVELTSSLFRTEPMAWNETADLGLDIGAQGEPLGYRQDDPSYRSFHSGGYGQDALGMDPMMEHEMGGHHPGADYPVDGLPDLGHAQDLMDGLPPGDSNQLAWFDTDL
UniProt O14901: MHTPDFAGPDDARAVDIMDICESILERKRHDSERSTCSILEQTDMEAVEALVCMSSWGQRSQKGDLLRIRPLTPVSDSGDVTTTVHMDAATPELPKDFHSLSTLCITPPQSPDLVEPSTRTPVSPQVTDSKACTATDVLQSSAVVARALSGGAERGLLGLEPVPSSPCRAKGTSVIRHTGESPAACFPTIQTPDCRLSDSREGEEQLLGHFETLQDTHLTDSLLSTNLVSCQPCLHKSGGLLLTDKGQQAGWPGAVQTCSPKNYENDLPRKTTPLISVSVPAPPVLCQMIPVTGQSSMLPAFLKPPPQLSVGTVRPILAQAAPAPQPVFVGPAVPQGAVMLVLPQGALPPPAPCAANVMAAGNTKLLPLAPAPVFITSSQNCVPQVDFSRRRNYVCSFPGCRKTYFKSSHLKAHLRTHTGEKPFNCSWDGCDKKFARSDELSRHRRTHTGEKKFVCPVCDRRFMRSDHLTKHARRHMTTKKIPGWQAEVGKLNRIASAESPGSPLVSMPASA
UniProt Q03164: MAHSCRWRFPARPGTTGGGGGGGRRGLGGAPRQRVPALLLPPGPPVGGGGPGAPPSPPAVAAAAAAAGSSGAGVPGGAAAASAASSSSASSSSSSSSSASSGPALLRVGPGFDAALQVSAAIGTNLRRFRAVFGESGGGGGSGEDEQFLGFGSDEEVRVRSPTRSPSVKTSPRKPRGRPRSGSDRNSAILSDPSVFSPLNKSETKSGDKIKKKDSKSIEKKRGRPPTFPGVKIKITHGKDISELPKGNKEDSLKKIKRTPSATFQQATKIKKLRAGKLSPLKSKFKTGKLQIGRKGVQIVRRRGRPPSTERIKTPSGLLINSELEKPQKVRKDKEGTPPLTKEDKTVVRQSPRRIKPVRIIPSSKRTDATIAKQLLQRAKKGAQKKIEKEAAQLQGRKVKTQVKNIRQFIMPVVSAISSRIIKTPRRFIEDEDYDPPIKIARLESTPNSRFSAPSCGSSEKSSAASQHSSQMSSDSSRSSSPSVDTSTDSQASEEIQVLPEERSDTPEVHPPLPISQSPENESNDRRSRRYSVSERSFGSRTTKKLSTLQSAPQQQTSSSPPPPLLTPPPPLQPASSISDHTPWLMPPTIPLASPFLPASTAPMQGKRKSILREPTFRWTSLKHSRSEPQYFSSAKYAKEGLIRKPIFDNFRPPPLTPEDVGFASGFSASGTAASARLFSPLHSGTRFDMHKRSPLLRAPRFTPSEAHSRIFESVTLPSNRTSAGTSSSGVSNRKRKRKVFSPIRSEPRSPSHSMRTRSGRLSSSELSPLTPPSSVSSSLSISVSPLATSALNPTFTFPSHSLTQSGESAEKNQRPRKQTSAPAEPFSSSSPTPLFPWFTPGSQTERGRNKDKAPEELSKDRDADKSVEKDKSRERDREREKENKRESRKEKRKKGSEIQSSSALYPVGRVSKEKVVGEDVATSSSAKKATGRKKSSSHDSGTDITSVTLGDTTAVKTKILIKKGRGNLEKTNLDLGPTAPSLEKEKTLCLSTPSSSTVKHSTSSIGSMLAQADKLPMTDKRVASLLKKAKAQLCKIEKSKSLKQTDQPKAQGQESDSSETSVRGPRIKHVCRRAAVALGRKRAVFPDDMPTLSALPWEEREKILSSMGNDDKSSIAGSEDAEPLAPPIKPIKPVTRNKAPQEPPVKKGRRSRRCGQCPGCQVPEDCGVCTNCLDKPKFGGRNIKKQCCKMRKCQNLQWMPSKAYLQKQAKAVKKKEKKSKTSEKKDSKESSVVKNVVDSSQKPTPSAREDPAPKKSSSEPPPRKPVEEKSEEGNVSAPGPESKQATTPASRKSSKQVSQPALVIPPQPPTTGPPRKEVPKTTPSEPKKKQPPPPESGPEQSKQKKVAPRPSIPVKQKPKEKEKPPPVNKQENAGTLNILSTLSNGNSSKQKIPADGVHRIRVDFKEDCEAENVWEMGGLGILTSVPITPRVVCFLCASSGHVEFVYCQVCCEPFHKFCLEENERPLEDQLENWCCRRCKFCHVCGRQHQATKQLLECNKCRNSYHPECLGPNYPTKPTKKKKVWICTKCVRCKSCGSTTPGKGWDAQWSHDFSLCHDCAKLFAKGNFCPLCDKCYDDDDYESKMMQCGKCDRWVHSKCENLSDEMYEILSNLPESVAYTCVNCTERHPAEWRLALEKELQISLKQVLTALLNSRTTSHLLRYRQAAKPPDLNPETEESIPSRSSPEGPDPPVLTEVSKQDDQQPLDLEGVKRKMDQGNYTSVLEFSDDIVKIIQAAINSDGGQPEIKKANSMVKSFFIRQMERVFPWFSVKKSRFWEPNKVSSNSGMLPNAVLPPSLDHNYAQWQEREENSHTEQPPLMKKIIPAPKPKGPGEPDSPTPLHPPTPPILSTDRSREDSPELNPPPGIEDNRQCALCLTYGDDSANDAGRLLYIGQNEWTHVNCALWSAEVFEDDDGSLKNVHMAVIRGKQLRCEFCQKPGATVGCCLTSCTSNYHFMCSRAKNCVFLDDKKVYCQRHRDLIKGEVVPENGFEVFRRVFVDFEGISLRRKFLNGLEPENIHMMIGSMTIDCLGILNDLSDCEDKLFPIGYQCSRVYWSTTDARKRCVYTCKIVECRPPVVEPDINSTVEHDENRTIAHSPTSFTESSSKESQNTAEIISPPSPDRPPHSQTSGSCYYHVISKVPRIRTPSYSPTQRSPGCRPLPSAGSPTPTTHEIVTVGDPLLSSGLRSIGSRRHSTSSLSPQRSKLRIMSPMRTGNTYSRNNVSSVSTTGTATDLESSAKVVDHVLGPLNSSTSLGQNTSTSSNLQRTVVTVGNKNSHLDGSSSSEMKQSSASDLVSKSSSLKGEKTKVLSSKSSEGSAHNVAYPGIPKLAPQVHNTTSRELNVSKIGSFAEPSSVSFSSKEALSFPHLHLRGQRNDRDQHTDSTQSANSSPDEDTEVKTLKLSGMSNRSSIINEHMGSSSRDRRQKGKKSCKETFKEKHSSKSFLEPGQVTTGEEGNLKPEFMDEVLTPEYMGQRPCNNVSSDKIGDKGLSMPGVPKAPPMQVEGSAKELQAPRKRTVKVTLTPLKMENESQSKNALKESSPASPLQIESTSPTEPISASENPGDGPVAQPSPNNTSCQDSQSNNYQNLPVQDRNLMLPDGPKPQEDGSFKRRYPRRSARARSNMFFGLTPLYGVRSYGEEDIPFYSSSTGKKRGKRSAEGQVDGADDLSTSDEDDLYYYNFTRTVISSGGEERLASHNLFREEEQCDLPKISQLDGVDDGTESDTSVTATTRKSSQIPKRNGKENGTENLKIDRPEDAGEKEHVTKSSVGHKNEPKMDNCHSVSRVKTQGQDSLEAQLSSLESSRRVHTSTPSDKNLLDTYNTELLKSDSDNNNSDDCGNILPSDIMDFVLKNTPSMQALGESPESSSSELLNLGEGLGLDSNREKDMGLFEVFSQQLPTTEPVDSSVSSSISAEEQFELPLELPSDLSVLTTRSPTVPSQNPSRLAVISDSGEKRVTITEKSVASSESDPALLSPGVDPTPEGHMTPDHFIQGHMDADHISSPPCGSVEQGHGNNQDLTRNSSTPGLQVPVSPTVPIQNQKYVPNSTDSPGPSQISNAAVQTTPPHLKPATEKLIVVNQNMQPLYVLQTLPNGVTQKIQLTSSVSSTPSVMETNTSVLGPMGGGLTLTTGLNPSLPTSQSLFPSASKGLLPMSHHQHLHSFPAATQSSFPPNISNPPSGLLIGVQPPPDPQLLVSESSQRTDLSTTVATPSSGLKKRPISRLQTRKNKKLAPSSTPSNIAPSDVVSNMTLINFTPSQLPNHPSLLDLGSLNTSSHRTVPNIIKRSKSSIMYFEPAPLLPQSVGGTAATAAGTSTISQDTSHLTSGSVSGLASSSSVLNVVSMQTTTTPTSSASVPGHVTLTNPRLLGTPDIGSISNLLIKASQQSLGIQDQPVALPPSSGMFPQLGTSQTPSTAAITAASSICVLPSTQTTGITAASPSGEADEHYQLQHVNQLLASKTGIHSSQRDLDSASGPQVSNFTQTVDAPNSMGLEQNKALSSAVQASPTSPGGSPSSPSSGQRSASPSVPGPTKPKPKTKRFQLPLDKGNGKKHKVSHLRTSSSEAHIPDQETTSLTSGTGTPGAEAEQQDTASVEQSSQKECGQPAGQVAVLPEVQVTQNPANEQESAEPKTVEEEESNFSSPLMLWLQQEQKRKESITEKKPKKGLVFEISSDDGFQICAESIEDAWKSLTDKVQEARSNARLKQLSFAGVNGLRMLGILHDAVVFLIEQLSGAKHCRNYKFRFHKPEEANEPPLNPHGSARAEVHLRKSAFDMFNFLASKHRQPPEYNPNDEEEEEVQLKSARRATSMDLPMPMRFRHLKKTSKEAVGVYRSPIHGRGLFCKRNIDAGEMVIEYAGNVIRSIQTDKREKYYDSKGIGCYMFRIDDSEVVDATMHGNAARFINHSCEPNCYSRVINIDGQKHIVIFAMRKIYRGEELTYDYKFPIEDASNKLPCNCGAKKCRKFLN

Target: β-catenin (human (endogenous in BGC-823)) (UniProt P35222)
Assay: co-IP; immunoprecipitation from BGC-823 cells with anti-β-catenin antibody, western blot with anti-KLF11 or anti-KMT2A antibodies

binding	Substance
binds	KLF Transcription Factor 11 (from UniProt O14901 1-512)
binds	KMT2A (from UniProt Q03164 1-3969) (enzyme)
